From article PMC11024185 come the findings set out here.

The chains behind the UniProt entries cited, without tags or fusion partners.
UniProt Q06205: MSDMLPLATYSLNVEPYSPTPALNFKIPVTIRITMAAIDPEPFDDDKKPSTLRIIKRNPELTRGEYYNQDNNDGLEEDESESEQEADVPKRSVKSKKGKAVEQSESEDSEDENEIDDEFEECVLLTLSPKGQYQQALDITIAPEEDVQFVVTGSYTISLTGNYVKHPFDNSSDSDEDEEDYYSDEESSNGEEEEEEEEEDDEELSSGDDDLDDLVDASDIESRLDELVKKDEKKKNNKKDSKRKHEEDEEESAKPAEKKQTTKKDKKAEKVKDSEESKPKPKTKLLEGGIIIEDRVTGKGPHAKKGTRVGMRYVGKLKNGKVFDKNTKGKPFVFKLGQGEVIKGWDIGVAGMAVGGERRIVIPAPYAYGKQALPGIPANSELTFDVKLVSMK
UniProt Q03532: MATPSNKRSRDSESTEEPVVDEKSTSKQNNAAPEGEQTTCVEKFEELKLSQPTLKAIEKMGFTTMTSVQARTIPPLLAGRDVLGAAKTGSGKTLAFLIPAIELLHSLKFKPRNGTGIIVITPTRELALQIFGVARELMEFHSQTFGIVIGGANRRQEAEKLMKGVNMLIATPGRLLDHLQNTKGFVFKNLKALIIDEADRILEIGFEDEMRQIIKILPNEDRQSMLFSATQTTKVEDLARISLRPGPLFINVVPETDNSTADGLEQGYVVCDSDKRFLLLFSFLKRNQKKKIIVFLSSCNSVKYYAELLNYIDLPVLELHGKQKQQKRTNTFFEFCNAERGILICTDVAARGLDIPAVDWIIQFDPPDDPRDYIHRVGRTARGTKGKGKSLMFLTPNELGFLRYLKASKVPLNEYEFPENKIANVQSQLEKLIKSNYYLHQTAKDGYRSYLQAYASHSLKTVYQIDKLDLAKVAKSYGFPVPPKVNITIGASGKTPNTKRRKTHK
UniProt P14126: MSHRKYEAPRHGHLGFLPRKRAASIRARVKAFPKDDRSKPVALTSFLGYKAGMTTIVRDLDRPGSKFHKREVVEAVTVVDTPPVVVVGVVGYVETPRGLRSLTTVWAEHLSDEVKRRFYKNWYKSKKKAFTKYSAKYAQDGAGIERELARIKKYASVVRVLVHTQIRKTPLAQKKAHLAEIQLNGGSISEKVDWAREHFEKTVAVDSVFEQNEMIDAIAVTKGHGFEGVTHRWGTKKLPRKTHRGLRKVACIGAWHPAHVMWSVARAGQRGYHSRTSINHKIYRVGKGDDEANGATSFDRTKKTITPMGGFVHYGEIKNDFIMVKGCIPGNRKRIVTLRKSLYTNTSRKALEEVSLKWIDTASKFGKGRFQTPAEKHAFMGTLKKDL
UniProt P40007: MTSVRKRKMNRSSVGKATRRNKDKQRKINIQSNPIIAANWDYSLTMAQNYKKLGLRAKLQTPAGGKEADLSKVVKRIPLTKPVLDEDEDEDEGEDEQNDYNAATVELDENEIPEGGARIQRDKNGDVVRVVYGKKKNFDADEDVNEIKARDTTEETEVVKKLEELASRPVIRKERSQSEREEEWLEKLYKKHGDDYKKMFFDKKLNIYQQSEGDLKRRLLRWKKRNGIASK

These are yes or no findings as the source states them, for the method shown. In cells and extracts the contact can be indirect. These calls come from enrichment with a bait or labelling near it, and not all partners need be listed. For some of these results: Where a sequence is shown, tags or fusion partners need not be part of it.

Assay [1] concerns the target T1, Drs1 R569Q (3x-Strep-Drs1 R569Q) (S. cerevisiae) (UniProt P32892).
T1 sequence: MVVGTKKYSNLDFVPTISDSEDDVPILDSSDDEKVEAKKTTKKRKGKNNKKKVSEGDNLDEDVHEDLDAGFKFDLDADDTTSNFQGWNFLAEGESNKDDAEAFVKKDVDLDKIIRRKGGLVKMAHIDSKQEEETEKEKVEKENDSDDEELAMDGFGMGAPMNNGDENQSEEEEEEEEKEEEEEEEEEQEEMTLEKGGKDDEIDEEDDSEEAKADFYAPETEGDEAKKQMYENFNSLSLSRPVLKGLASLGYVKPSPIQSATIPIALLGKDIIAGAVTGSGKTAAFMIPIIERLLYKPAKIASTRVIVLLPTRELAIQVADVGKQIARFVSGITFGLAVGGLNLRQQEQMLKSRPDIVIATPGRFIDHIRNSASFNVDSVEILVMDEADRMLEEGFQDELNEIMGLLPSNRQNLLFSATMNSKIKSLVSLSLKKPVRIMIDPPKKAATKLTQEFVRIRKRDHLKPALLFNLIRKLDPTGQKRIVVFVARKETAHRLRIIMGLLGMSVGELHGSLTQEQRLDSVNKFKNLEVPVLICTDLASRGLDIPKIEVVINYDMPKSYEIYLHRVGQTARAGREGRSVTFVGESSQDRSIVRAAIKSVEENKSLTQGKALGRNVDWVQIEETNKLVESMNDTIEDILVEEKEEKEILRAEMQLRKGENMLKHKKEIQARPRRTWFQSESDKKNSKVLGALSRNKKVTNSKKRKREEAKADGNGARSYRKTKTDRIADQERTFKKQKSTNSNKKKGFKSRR
Put plainly: affinity purification with mass spectrometry; purification of pre-60S intermediates from a drs1 R569Q strain by tags on Drs1 R569Q (3x-Strep) and Ssf1 (2x-ProtA); Coomassie-stained 4-20% SDS-PAGE.

Assay [2] deals with T2, Dbp10 R522V (sfGFP-3xSTREP-bdNEDD8-MYC-dbp10 R522V) (S. cerevisiae) (UniProt Q12389).
T2 sequence: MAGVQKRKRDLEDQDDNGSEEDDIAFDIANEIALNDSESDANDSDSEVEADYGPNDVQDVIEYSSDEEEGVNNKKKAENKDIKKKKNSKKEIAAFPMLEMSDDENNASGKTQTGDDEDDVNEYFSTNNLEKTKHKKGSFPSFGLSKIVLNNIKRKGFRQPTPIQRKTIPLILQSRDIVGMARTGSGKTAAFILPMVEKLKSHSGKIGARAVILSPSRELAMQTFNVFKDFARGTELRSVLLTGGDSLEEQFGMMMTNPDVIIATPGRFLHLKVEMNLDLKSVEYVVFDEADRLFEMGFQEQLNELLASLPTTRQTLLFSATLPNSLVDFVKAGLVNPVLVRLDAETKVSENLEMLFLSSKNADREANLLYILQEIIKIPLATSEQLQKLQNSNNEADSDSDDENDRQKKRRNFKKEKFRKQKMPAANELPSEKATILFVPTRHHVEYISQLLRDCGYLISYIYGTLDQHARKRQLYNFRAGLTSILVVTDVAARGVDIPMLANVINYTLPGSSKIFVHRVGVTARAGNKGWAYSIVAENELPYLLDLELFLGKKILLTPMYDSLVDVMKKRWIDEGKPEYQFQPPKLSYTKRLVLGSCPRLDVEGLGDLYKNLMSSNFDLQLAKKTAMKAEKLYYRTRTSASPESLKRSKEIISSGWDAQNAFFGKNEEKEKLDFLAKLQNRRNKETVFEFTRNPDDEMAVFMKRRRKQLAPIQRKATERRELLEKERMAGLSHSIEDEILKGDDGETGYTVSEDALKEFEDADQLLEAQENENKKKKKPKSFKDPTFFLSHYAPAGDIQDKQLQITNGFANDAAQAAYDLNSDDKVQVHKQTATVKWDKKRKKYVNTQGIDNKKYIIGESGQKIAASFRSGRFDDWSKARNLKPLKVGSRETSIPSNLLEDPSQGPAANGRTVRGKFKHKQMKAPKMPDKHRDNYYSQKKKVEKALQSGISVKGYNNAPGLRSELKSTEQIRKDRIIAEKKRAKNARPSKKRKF
The experiment in a line: affinity purification with mass spectrometry; split-tag purification of pre-60S particles from yeast overexpressing dbp10 R522V (β-estradiol, 1 h): IgG Sepharose on Ssf1-2xProteinA, 3C cleavage, then Strep-Tactin on Dbp10 R522V, bdNEDD8 protease elution; 50 mM Bis-Tris-Propane pH 8.0, 125 mM NaCl, 25 mM KCl, 10 mM MgCl2; Coomassie-stained 4-20% SDS-PAGE, bands named by molecular weight, ambiguous bands by mass spectrometry.

Assay [3] deals with T3, Ssf1-3xFLAG-3C-2xProteinA (S. cerevisiae) (UniProt P38789).
T3 sequence: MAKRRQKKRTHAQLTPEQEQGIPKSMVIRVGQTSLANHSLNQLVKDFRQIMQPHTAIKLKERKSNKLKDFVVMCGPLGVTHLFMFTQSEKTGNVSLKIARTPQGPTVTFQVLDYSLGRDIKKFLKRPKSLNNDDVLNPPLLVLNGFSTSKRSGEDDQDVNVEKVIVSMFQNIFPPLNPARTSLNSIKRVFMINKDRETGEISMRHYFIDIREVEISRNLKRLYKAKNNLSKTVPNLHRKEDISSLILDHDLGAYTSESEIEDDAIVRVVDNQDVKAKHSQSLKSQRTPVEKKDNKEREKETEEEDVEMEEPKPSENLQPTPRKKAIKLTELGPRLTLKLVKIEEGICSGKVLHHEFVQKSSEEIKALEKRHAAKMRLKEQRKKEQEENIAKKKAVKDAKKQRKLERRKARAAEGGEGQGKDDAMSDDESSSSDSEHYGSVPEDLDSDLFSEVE
The description is as above.

In the case of “uL4 (S. cerevisiae (endogenous in yeast))”, the binding entry in assay [1], in assay [2] and in assay [3] was “binds” throughout.
Fpr4 (from UniProt Q06205 1-392): the binding result in assay [1], in assay [2] and in assay [3] was “binds” in each case.
As to “Has1 (from UniProt Q03532 1-505) (enzyme)”, the binding entry in assay [1], in assay [2] and in assay [3] was “binds” each time.
As for uL3 (from UniProt P14126 1-387), the binding entry in assay [1], in assay [2] and in assay [3] was “binds” in each case.
Take Nop16 (from UniProt P40007 1-231): the binding result in assay [1], in assay [2] and in assay [3] was “binds” in each case.

B1: Rpf2 (protein, UniProt P36160 1-344)
chain: MIRTVKPKNARAKRALVKREAKLVENVKQALFIPGQSCNKNLHDIMVDLSALKKPDMKRFNRKNDIHPFEDMSPLEFFSEKNDCSLMVLMTSSKKRKNNMTFIRTFGYKIYDMIELMVADNFKLLSDFKKLTFTVGLKPMFTFQGAAFDTHPVYKQIKSLFLDFFRGESTDLQDVAGLQHVISMTIQGDFQDGEPLPNVLFRVYKLKSYKSDQGGKRLPRIELVEIGPRLDFKIGRIHTPSPDMVTEAHKKPKQLEMKTKKNVELDIMGDKLGRIHMGKQDLGKLQTRKMKGLKSKFDQGTEEGDGEVDEDYEDEASYSDDGQEYEEEFVSATDIEPSAKRQKK
Turning to B1, the binding entry in assay [1], in assay [2] and in assay [3] was “binds” each time.

B2: Mak16 (protein, UniProt P10962 1-306)
chain: MSDEIVWQVINQSFCSHRIKAPNGQNFCRNEYNVTGLCTRQSCPLANSKYATVKCDNGKLYLYMKTPERAHTPAKLWERIKLSKNYTKALQQIDEHLLHWSKFFRHKCKQRFTKLTQVMITERRLALREEERHYVGVAPKVKRREQNRERKALVAAKIEKAIEKELMDRLKSGAYGDKPLNVDEKVWKKIMGQMEEENSQDEEEDWDEEEESDDGEVEYVADDGEGEYVDVDDLEKWLADSDREASSASESESDSESESDSDSDEENKNSAKRRKKGTSAKTKRPKVEIEYEEEHEVQNAEQEVAQ
Regarding B2, the binding result in assay [1], in assay [2] and in assay [3] was “binds” each time.

B3: Ytm1 (protein, UniProt Q12024 1-460)
chain: MTEDKSQVKIRFFTREKDELLHVQDTPMYAPISLKRYGLSEIVNHLLGSEKPVPFDFLIEGELLRTSLHDYLTKKGLSSEASLNVEYTRAILPPSYLNSFSNEDWVSSLDVGDGSKHIISGSYDGIVRTWDLSGNVQKQYSGHSGPIRAVKYISNTRLVSAGNDRTLRLWKTKNDDLKLTSQQQAQEDDDDEVNIEDGKTLAILEGHKAPVVSIDVSDNSRILSASYDNSIGFWSTIYKEMTVVDPLEDINNPNNKISTAARKRRKLTMKDGTIRRRAPLSLLESHTAPVEQVIFDSTDNTVGYSVSQDHTIKTWDLVTARCIDTRTTSYSLLSIAQLSTLNLLACGSSARHITLHDPRVGASSKVTQQQLIGHKNFVSSLDTCPENEYILCSGSHDGTVKVWDVRSTSPMYTITREDKSVQKGVNDKVFAVKWAEKVGIISAGQDKKIQINKGDNIFKN
With B3, the binding result in assay [1], in assay [2] and in assay [3] was “binds” each time.

B4: Erb1 (protein, UniProt Q04660 1-807)
chain: MMAKNNKTTEAKMSKKRAASEESDVEEDEDKLLSVDGLIDAEASESDEDDDEYESAVEEKESSSDKEAQDDSDDDSDAELNKLLAEEEGDGEEDYDSSEFSDDTTSLTDRLSGVKLQTIVDPNIYSKYADGSDRIIKPEINPVYDSDDSDAETQNTIGNIPLSAYDEMPHIGYDINGKRIMRPAKGSALDQLLDSIELPEGWTGLLDKNSGSSLNLTKEELELISKIQRNEQTDDSINPYEPLIDWFTRHEEVMPLTAVPEPKRRFVPSKNEAKRVMKIVRAIREGRIIPPKKLKEMKEKEKIENYQYDLWGDSTETNDHVMHLRAPKLPPPTNEESYNPPEEYLLSPEEKEAWENTEYSERERNFIPQKYSALRKVPGYGESIRERFERSLDLYLAPRVRKNKLNIDPNSLIPELPSPKDLRPFPIRCSTIYAGHKGKVRTLSIDPSGLWLATGSDDGTVRVWEILTGREVYRTTLIDDEENPDYHIECIEWNPDANNGILAVAVGENIHLIVPPIFGYDIENNGKTKIEDGFGYDTFGTVKKSNLEVNENGDGDEDGENESAKNAVKKQVAQWNKPSQKQLEKDICITISCKKTVKKLSWHRKGDYFVTVQPDSGNTSVLIHQVSKHLTQSPFKKSKGIIMDAKFHPFKPQLFVCSQRYVRIYDLSQQILVKKLLPGARWLSKIDIHPRGDNLIASSFDKRVLWHDLDLASTPYKTLRYHEKAVRSVNFHKKLPLFSSAADDGTIHVFHATVYDDMMKNPMIVPLKKLTGHKVINSLGVLDAIWHPREAWLFSAGADNTARLWTT
As to B4, the binding entry in assay [2] and in assay [3] was “binds” throughout.

B5: Nop7 (protein, UniProt P53261 1-605)
chain: MRIKKKNTRGNARNFITRSQAVRKLQVSLADFRRLCIFKGIYPREPRNKKKANKGSTAPTTFYYAKDIQYLMHEPVLAKFREHKTFARKLTRALGRGEVSSAKRLEENRDSYTLDHIIKERYPSFPDAIRDIDDALNMLFLFSNLPSTNQVSSKIINDAQKICNQWLAYVAKERLVRKVFVSIKGVYYQANIKGEEVRWLVPFKFPENIPSDVDFRIMLTFLEFYSTLLHFVLYKLYTDSGLIYPPKLDLKKDKIISGLSSYILESRQEDSLLKLDPTEIEEDVKVESLDASTLKSALNADEANTDETEKEEEQEKKQEKEQEKEQNEETELDTFEDNNKNKGDILIQPSKYDSPVASLFSAFVFYVSREVPIDILEFLILSCGGNVISEAAMDQIENKKDIDMSKVTHQIVDRPVLKNKVAGRTYIQPQWIFDCINKGELVPANKYLPGEALPPHLSPWGDAIGYDPTAPVEEGEEEESESESESEDQVEEEDQEVVAGEEDDDDDEELQAQKELELEAQGIKYSETSEADKDVNKSKNKKRKVDEEEEEKKLKMIMMSNKQKKLYKKMKYSNAKKEEQAENLKKKKKQIAKQKAKLNKLDSKK
Take B5: the binding entry in assay [2] and in assay [3] was “binds” throughout.
